Results from patent US20220289795, “EFFICIENT METHOD FOR PREPARING PPR PROTEIN AND USE OF THE SAME” (EditForce, Inc., published 2022).
Protein sequences can lack the tags named with them.

Tests used:
[1] = system: T1, v2_PPRsp6 (Artificial Sequence); assay: activity in cells; conditions: larger splicing change than v1, HEK293T; protein in cells; protein details: N-term NLS, C-term FLAG; only the site is given
T1 sequence: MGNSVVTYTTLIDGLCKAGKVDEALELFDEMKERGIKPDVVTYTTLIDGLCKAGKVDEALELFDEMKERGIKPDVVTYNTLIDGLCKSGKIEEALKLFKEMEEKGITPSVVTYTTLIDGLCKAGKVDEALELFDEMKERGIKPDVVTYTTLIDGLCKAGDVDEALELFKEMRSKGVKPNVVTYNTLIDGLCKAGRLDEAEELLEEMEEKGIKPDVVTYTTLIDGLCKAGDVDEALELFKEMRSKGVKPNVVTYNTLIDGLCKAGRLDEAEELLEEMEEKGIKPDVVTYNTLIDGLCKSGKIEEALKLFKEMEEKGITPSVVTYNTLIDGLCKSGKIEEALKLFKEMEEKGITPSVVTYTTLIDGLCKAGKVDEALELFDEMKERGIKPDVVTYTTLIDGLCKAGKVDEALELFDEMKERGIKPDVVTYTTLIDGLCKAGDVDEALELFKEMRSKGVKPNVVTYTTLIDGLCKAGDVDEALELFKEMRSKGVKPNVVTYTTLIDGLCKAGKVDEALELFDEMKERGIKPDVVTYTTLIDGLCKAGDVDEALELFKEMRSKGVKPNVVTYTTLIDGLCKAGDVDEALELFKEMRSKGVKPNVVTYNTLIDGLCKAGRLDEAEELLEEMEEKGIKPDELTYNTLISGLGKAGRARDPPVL

[2] = system: T2, v1_PPRsp6 (Artificial Sequence); assay: activity in cells; conditions: splicing ratio of RG6 changed, HEK293T; protein in cells; protein details: N-term NLS, C-term FLAG; only the site is given
T2 sequence: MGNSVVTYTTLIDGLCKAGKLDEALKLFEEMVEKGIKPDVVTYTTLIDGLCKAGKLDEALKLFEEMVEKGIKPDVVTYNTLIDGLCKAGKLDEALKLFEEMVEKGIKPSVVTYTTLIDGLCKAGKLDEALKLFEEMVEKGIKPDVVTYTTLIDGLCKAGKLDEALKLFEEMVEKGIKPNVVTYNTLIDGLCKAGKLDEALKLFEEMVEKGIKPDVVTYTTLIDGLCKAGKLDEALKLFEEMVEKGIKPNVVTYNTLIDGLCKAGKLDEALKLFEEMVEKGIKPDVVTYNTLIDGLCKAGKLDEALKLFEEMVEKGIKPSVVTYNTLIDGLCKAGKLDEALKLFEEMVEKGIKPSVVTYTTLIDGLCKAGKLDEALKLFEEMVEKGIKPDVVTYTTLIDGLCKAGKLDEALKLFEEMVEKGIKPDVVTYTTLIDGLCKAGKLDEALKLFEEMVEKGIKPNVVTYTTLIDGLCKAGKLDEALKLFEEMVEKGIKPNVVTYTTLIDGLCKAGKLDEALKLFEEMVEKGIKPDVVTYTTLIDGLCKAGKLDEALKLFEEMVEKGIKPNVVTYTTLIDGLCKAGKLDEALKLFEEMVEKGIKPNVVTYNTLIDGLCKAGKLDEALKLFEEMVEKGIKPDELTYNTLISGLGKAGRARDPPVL

## GGCGAUAUCCGGAAGAAU [T82 (RG6 reporter)]
[1]
  functional effect: active
[2]
  functional effect: active
